Data source: PubChem BioAssay AID504793 (Drosophila RNAi Screening Center, 2011)

Screen: 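Knock-downs allowing continued mitosis even though DNA is damaged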 (primary screen)
Cells: Drosophila S2R+ cells
Reagents: long dsRNA against Drosophila genes, about 0.25 µg dsRNA per well
Timing: 4 days of dsRNA, then 4 hours of drug before read-out
Treatment: doxorubicin 0.5 µM for 4 hours to cause double-strand breaks, in cells also given a low, harmless dose of dsRNA against nbs to sensitise the assay
Measurement: 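Mitotic index as the number of phospho-histone H3-positive cells in each well following doxorubicin, given as raw counts without normalisation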
Direction: mitotic cells: higher = more cells in mitosis, weaker G2 arrest
Hit rule: 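Genes are called active only when high mitotic counts were reproduced with independent dsRNAs and mitosis was checked for delay without damage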
Meaning of the calls: active = confirmed in follow-up tests; inactive = not confirmed
The screen tested about 23,000 reagents; this is an unselected part of those that have a named target and a result. Over the whole deposit, 62 (0.27%) got an active call. 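Calls come from follow-up tests whose scores are not deposited, so confirmed genes may have low counts here; counts are not normalised per plate.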 Raw values are not corrected between plates. No sequences are given here.

CG14160 [DRSC10161] gave mitotic cells, replicate 1 = 4; inactive.
Cdk12 [DRSC11836] showed mitotic cells, replicate 1 = 14; inactive.
Knock-down of Cdk12 [DRSC23323] came out at: mitotic cells, replicate 1 = 9; inactive.
For Cdk12 [DRSC29623], the values are mitotic cells, replicate 1 = 5; inactive.
After knock-down of CSN8 [DRSC02257] the results were mitotic cells, replicate 1 = 12; inactive.
With knock-down of Cyp4g1 [DRSC18459], the screen gave mitotic cells, replicate 1 = 5; inactive.
With knock-down of Cyp4g1 [DRSC29899] the results were mitotic cells, replicate 1 = 2; inactive.
With knock-down of lncRNA:CR30009 [DRSC22952] the results were mitotic cells, replicate 1 = 16; inactive.
For lncRNA:CR30009 [DRSC29817], the entry reads mitotic cells, replicate 1 = 5; inactive.
For rho-4 [DRSC19761], the values are mitotic cells, replicate 1 = 6; inactive.
With knock-down of rho-4 [DRSC19762] the results were mitotic cells, replicate 1 = 16; inactive.
For Def [DRSC07398], the entry reads mitotic cells, replicate 1 = 7; inactive.
Prx3 [DRSC15883] scored mitotic cells, replicate 1 = 8; inactive.
Knock-down of Prx3 [DRSC29107] gave: mitotic cells, replicate 1 = 5; inactive.
For tx (retired record) [DRSC16931], the values are mitotic cells, replicate 1 = 2; inactive.
After knock-down of tx (retired record) [DRSC27383], the record shows mitotic cells, replicate 1 = 6; inactive.
After knock-down of Tao [DRSC19573] the results were mitotic cells, replicate 1 = 9; inactive.
Silencing of Tao [DRSC19574] resulted in: mitotic cells, replicate 1 = 8; inactive.
After knock-down of Tao [DRSC22639], the record shows mitotic cells, replicate 1 = 13; inactive.
Depletion of Tao [DRSC28431] came out at: mitotic cells, replicate 1 = 1; inactive.
Tsp26A [DRSC03135] gave mitotic cells, replicate 1 = 5; inactive.
Depletion of CG17321 [DRSC02598] resulted in: mitotic cells, replicate 1 = 5; inactive.
After knock-down of CG17321 [DRSC25649] the results were mitotic cells, replicate 1 = 6; inactive.
Depletion of san [DRSC07695] resulted in: mitotic cells, replicate 1 = 14; inactive.
After knock-down of CG15525 [DRSC15062] the results were mitotic cells, replicate 1 = 7; inactive.
CG15525 [DRSC27631] showed mitotic cells, replicate 1 = 3; inactive.
With knock-down of CG10139 [DRSC05972], the record shows mitotic cells, replicate 1 = 2; inactive.
Against Myo61F [DRSC22144], the values are mitotic cells, replicate 1 = 8; inactive.
Depletion of Myo61F [DRSC27633] gave: mitotic cells, replicate 1 = 6; inactive.
After knock-down of CG8860 [DRSC07291], the record shows mitotic cells, replicate 1 = 3; inactive.
For CG8860 [DRSC25286] the deposit lists mitotic cells, replicate 1 = 6; inactive.
For Patronin [DRSC06756], the entry reads mitotic cells, replicate 1 = 6; inactive.
Patronin [DRSC06757] showed mitotic cells, replicate 1 = 5; inactive.
After knock-down of Patronin [DRSC06994], the record shows mitotic cells, replicate 1 = 11; inactive.

3 of these entries, set out differently:
gene	amplicon	mitotic cells, replicate 1	Outcome
CG10139	DRSC05972	2	inactive
Myo61F	DRSC22144	8	inactive
Myo61F	DRSC27633	6	inactive
